In all, about 310,000 compounds went through this assay and about 17,000 (5.5%) were called active. The shares of active, inactive and inconclusive entries below differ from those in the screen. The call rests on the fitted dose curve; in most records, active means well fitted inhibition curve with a large enough effect; inconclusive means small, poorly fitted or top-dose-only effect, or effect the other way; inactive means no such curve, though single readings can be large or run the other way. A potency beside an inconclusive call is a rough fit, not a confirmed value.
Target: Nuclear receptor ROR-gamma (Mus musculus) (UniProt P51450)
Experiment: qHTS for inhibitors of ROR gamma transcriptional activity; further: nearly all actives have a fitted effect of over 60% in size
Details: Drosophila S2 Gal4-RORgamma UAS-luciferase reporter, 20 h; activity change, negative = inhibition: at 53.6 µM (top of the series)
Summary of the method: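 In this cell-based reporter format, copper sulfate (700 uM final) drives Gal4–ROR gamma fusion expression from a metallothionein promoter in Drosophila Schneider cells; compounds preincubated 1 hr, reporter read after 20 hr at ambient temperature.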
On the % scale 0 is the no-effect control and ±100 the full control effect; potency means the concentration at half of the fitted maximal effect.

By UniProt entry, the sequences of proteins in these tests, tags left out. Where a name states a change or a piece, a line headed by the entry shows the natural chain unless it says otherwise.
UniProt P51450: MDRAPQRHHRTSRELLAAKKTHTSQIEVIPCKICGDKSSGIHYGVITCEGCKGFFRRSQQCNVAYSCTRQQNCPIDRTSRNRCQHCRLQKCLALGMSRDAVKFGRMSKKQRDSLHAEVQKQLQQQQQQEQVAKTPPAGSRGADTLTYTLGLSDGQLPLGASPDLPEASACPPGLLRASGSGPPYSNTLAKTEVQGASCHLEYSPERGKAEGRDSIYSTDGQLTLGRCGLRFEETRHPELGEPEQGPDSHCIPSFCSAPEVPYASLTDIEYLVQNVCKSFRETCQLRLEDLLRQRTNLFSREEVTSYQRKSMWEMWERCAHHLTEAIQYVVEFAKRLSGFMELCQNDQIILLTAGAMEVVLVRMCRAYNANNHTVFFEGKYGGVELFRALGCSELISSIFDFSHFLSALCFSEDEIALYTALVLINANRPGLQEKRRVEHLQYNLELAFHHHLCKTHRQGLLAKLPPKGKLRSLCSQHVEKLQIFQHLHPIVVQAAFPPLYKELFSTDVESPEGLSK

Potency, active:
COc1cccc(NC(=S)Nc2cccc3ccccc23)c1 0.112 µM
CC(C)CN1CN(Cc2ccccc2)CNC1=S 3.98 µM
CCCC(=O)Nc1ccc(-c2nc3cc(C)ccc3o2)cc1 3.98 µM
O=C(CCl)N1N=C(c2ccco2)CC1c1ccco1 (stereo unspecified) 10 µM
COc1ccc(/C=C/C(=O)Nc2ccccc2C(=O)O)cc1 7.94 µM
Nc1nc(-c2ccc(NC(=O)c3ccco3)cc2)cs1 10 µM
CCCc1cc(C(=O)Nc2nccs2)cs1 5.01 µM
CCOC(=O)C1(CCc2ccccc2)CCN(Cc2ccccn2)CC1 5.01 µM
CC(=O)c1cccc(NC(=S)NC(=O)c2cccc(C)c2)c1 7.94 µM
CCc1c(C)nc2cc(-c3ccc(OC)c(OC)c3)nn2c1NCC1CC1 11.2 µM
C=CCN=c1scc(-c2ccc3c(c2)NC(=O)CO3)n1/N=C(\C)c1ccccn1 11.2 µM
NC(=S)C(c1ccccc1)c1ncc(C(F)(F)F)cc1Cl (stereo unspecified) 6.31 µM
Cc1cc(N/N=C/c2ccc3c(c2)OCO3)nc2ccccc12 12.6 µM

Potency, inconclusive:
CCCc1cc(NCCCn2ccnc2)n2nc(C)c(-c3ccccc3)c2n1 1.58 µM [inhibitor, partial curve]
CC1CCN(c2ccc(/C=N\Nc3nncn3N)cc2[N+](=O)[O-])CC1 22.4 µM [inhibitor, single point]
O=C(CC1COc2ccccc2O1)NCc1ccccc1 (stereo unspecified) 35.5 µM [activator, single point]
CNc1ccc(Br)cc(C(=O)/C=C/c2ccc(Cl)cc2Cl)c1=O 35.5 µM [inhibitor, single point]
O=Nc1c(-c2ccccc2)[nH]n(-c2ccccc2)c1=O 31.6 µM [inhibitor, single point]
CCOC(=O)N/N=C/c1cn(Cc2ccccc2Cl)c2ccccc12 5.62 µM [activator, full curve]
COCCNC(=O)c1ccc2nc(Cc3ccc(OC)c(OC)c3)oc2c1 11.2 µM [activator, partial curve, poor fit]
Cc1ccccc1-n1nnnc1SCc1cc(=O)n2ccsc2n1 20 µM [activator, single point]
O=C(Nc1ccccc1)OCc1cc(-c2ccccc2Cl)on1 3.98 µM [activator, partial curve]
CC(=O)N1/C(=C/c2ccc(N(C)C)cc2)C(=O)c2ccccc21 35.5 µM [inhibitor, single point]
COc1ccc(C2CCCN2C(=O)Nc2ccc(Cl)cc2)cc1OC (stereo unspecified) 12.6 µM [activator, partial curve]
COc1ccc(CN2C(=O)CC(C(=O)NCCc3ccc(S(N)(=O)=O)cc3)SC2=Nc2ccccc2)cc1 (stereo unspecified) 35.5 µM [inhibitor, single point]
O=C(Nc1ccccc1C(=O)Nc1ccccc1)c1cccs1 17.8 µM [activator, single point]
CC(=O)N1CCSc2ccc(S(=O)(=O)Nc3ccccc3C)cc21 7.08 µM [activator, partial curve]
O=C(Cn1ncc(N2CCOCC2)c(Br)c1=O)c1ccc(Cl)cc1 3.98 µM [activator, partial curve, poor fit]
Cc1cc(NC(=O)CN2CCN(c3cccc(Cl)c3)CC2)no1 5.01 µM [inhibitor, single point]
O=C(Cn1[nH]c(=O)c2ccccc2c1=O)Nc1ccc2c(c1)CCC2 12.6 µM [activator, single point]
Cc1c(C(=O)N2CCN(c3cccc(Cl)c3)CC2)cccc1[N+](=O)[O-] 12.6 µM [activator, single point]
S=C(NCc1ccc(Cl)c(Cl)c1)NCc1ccco1 35.5 µM [inhibitor, single point]
COC(=O)c1cc(S(=O)(=O)NCCc2ccc(Cl)cc2)c[nH]1 12.6 µM [activator, single point]
COc1ccc(NS(=O)(=O)c2ccc3oc(SC)nc3c2)cc1 12.6 µM [activator, partial curve]
CC1C(c2ccccc2)N(C)C(c2ccccc2)CC1(O)c1ccccc1 (stereo unspecified) 35.5 µM [activator, single point]
Cc1ccccc1N=C/C=C1/C=C(c2ccccc2)OC(C)(C)O1 35.5 µM [inhibitor, single point]
CCOC(=O)Cc1ncccc1C(=O)Nc1ccc(OC(F)(F)F)cc1 35.5 µM [inhibitor, single point]
Cc1oc2c(c1C(=O)O)C(=O)c1ccccc1C2=O 35.5 µM [inhibitor, single point]
COc1ccc(NC(=O)CSc2nc(NS(=O)(=O)c3ccccc3)cc(=O)[nH]2)cc1 4.47 µM [inhibitor, single point]
O=C(NCc1cccs1)C(Cc1ccccc1)n1cccc1 (stereo unspecified) 31.6 µM [activator, single point]
Cc1onc(-c2ccc(Cl)cc2)c1-c1ccnc(SCC(=O)Nc2cc(Cl)cc(Cl)c2)n1 14.1 µM [activator, single point]
Fc1ccc(CNc2nc(-c3ccccc3)nc3ccccc23)cc1 28.2 µM [inhibitor, single point]
CCOC(OCC)c1cn(Cc2ccc(C(=O)c3ccccc3)cc2)nn1 31.6 µM [activator, single point]
CCOc1ccc(N(CC(=O)NCCSCc2ccccc2)S(=O)(=O)c2ccccc2)cc1 8.91 µM [activator, partial curve, poor fit]
Cc1ccc(-c2ccc(NC(=O)C3C4C=CC(C4)C3C(=O)O)cc2)o1 (stereo unspecified) 3.55 µM [inhibitor, single point]
CC(C)[C@H](NC(=O)OCc1ccccc1)C(=O)OCc1cc(=O)oc2cc(O)ccc12 10 µM [activator, single point]
O=C(CCc1ccccc1)Nc1ccc2ccccc2n1 0.199 µM [activator, full curve, poor fit]
O=C(Nc1ccc(C(=O)N2CCCCC2)cc1)Nc1cccc(Cl)c1 12.6 µM [activator, single point]
COC(=O)c1ccc(NC(=O)Cn2nnc3ccccc32)cc1 0.199 µM [activator, partial curve, poor fit]
N/C(=N\OC(=O)Cc1ccccc1)c1ccc(Br)cc1 10 µM [activator, partial curve]
COC(=O)CSC1=C(C#N)C(c2ccccc2OC)C(C(=O)OC)C(=O)N1 (stereo unspecified) 3.16 µM [inhibitor, single point]
COc1cc([N+](=O)[O-])ccc1NC(=O)CN1CCOCC1 0.112 µM [activator, full curve, poor fit]

Activity change, negative = inhibition, inactive:
COc1cc2cc(CN(Cc3cccs3)C(=S)Nc3ccc(C)cc3)c(=O)[nH]c2cc1OC -0.95%
Cc1cccc(NC(=O)c2ccc(S(=O)(=O)NCc3cccnc3)cc2)c1 24.9%
O=C(COC(=O)/C=C/c1cccc(Cl)c1)NCCc1ccc(Cl)cc1Cl -14.7%
O=C(Nc1cccc(-c2cccc(F)c2)c1)C1CCN(C2CCC2)CC1 0.699%
Cc1ccc(C(=O)Nc2ccc(N3CCN(S(C)(=O)=O)CC3)cc2)cc1 27%
COc1ccc(C(=O)Nc2ccccc2-c2nnn(CC(=O)Nc3ccc4c(c3)OCCO4)n2)cc1 -18.2%
O=C(NCC(=O)N1CCCC1)c1ccccc1F 22.6%
Cc1ccc(Sc2ccc(/C=C3/C(=O)NN(c4ccccc4)C3=O)o2)cc1 11.3%
CC(=O)Nc1sc(/C(C#N)=C/c2ccc(Cl)c(Cl)c2)nc1-c1ccc(C)cc1 -1.64%
COc1ccccc1NS(=O)(=O)c1cccc(C(=O)N/N=C/c2ccc(OCC(=O)O)cc2)c1 27%
Cc1ccc(Cl)cc1NC(=O)C(Cc1ccccc1)N1C(=O)C2C3CCC(C3)C2C1=O (stereo unspecified) -20%
CC(CNS(=O)(=O)c1ccccc1)(c1ccccc1)N1CCOCC1 (stereo unspecified) 30.7%
Cc1cc(C)c2cc(CN(CCO)Cc3nnnn3Cc3ccc(F)cc3)c(=O)[nH]c2c1 -10.2%
CCOC(=O)C1=C(C)N=c2s/c(=C/c3ccc(OCC(=O)O)cc3)c(=O)n2C1c1ccc(SC)cc1 (stereo unspecified) 17.9%
O=[N+]([O-])c1cnn(-c2nc(-c3ccccc3)cc(C(F)(F)F)n2)c1 19.3%
CC1(C)Oc2ccc3ccc(=O)oc3c2C(/C=N/O)=C1Cl -14.9%
CCOC(=O)CNC(=O)c1cc(-c2ccc3c(c2)OCCO3)oc1C 2.46%
O=C1CC(/C=C/c2ccccc2)=Nc2ccccc2N1 28%
CC(C)n1nccc1NC(=O)Nc1ccccc1 -15.5%
O=C(N/N=C\c1ccccc1F)c1ccc(-c2ccccc2)cc1 -13.7%
Cc1sc(NC(=O)C(C)C)c(C(=O)Nc2ccccc2)c1C 27.2%
CO[C@@H]1/C=C\CC(=O)N2CCC[C@@H]2C(=O)OC[C@H](C)C(=O)OC[C@H]1C 12.6% [at 10 µM]
CC1CCN(C(=O)C2CCN(S(=O)(=O)c3cccc4cccnc34)CC2)CC1 5.48%
Cc1cc(C)c(C)c(S(=O)(=O)NCCCN2CCOCC2)c1C -1.33%

Quoted at random: two records from the list.
Activity change, negative = inhibition, inactive:
Cc1ccc(C(=O)Nc2ccc(N3CCN(S(C)(=O)=O)CC3)cc2)cc1 27%
O=C(COC(=O)/C=C/c1cccc(Cl)c1)NCCc1ccc(Cl)cc1Cl -14.7%

Sorted by SMILES length (descending): some entries from above
Activity change, negative = inhibition, inactive:
COc1ccc(C(=O)Nc2ccccc2-c2nnn(CC(=O)Nc3ccc4c(c3)OCCO4)n2)cc1 -18.2%
Cc1cc(C)c2cc(CN(CCO)Cc3nnnn3Cc3ccc(F)cc3)c(=O)[nH]c2c1 -10.2%
O=C(N/N=C\c1ccccc1F)c1ccc(-c2ccccc2)cc1 -13.7%
